Results are given in words; binding and its absence hold for the method and conditions named. Binding seen in cells or lysates may run through a third protein. Here binding means that the protein was enriched with, or labelled near, the bait; the list need not be complete.
T1: SRSF3 (of the SRSF3 immunoprecipitates used for proteomic analysis) (human) (UniProt P84103)
T1 sequence: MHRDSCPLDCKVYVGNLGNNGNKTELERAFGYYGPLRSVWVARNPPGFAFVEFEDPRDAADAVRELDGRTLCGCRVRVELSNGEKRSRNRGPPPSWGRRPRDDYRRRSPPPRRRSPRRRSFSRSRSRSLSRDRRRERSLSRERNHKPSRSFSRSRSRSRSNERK

The chains behind the UniProt entries cited, without tags or fusion partners.
UniProt P11940: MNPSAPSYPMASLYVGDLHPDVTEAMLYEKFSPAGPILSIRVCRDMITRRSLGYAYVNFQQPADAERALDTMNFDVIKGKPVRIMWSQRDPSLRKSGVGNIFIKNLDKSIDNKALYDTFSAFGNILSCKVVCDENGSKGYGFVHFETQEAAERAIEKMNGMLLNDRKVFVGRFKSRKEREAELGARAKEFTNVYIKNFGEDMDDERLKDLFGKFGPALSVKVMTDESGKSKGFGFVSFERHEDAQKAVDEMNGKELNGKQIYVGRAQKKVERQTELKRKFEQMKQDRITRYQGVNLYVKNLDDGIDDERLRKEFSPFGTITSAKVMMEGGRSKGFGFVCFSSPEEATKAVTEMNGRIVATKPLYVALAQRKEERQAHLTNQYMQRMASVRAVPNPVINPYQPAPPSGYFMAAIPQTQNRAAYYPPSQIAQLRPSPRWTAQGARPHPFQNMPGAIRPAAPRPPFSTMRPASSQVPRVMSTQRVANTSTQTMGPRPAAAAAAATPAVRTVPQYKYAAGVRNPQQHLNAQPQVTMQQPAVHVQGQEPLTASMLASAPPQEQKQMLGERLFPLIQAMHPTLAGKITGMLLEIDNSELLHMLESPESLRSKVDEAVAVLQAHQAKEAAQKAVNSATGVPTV
UniProt P41091: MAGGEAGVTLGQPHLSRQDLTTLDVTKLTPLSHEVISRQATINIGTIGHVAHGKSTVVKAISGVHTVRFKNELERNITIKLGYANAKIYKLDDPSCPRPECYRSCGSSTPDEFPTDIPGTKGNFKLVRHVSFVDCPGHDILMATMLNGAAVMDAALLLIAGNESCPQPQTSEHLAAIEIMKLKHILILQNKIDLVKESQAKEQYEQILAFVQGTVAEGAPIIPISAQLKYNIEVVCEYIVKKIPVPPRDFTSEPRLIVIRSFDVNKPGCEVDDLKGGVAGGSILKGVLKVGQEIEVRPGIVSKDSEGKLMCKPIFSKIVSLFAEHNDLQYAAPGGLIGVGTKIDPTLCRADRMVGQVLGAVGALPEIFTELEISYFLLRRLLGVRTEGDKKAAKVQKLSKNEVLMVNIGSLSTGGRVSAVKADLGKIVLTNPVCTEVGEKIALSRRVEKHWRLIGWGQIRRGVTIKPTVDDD
UniProt Q09161: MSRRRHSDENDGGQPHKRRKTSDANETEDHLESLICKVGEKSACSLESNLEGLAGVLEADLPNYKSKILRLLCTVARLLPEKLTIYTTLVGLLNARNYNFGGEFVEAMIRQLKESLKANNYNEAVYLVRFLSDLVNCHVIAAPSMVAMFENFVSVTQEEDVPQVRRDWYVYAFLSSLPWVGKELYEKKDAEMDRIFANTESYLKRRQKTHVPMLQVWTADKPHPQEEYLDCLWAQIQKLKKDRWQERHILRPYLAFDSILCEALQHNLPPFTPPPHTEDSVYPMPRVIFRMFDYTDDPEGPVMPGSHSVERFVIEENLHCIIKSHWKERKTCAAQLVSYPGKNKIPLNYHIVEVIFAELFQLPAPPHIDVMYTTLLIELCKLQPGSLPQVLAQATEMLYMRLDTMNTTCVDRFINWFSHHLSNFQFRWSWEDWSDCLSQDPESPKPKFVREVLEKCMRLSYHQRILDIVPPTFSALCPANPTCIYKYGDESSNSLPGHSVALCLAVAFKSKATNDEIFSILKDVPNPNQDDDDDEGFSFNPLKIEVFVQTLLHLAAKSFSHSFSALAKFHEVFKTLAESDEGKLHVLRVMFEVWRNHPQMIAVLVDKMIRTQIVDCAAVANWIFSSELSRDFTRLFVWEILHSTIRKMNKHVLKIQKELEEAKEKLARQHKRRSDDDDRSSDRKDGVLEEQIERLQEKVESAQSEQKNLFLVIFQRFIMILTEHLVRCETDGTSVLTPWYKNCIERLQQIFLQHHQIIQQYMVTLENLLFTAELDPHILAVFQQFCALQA
UniProt P60842: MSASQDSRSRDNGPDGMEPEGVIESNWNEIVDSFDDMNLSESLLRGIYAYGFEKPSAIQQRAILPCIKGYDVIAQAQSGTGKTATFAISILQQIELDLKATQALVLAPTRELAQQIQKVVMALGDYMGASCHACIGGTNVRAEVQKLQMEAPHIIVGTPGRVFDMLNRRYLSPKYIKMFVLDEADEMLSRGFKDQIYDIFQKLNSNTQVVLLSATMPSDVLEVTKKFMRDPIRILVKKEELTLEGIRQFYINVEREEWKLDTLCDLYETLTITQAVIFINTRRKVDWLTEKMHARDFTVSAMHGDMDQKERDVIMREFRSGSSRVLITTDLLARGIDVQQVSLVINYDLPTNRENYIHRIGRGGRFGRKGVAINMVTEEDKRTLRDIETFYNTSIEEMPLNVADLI


Each molecule was assayed against T1, SRSF3 (of the SRSF3 immunoprecipitates used for proteomic analysis) (human) (assay: affinity purification with mass spectrometry; proteomic analysis of SRSF3 immunoprecipitates; no further details given).

Row | Molecule | binding
1 | polyadenylate-binding protein 1 (PABP1) (from UniProt P11940 1-636) | binds
2 | eukaryotic translation initiation factor 2 subunit 3 (EIF2S3) (from UniProt P41091 1-472) | binds
3 | eukaryotic translation initiation factor 2A (EIF2A) (protein, UniProt Q9BY44 1-585) MAPSTPLLTVRGSEGLYMVNGPPHFTESTVFPRESGKNCKVCIFSKDGTLFAWGNGEKVNIISVTNKGLLHSFDLLKAVCLEFSPKNTVLATWQPYTTSKDGTAGIPNLQLYDVKTGTCLKSFIQKKMQNWCPSWSEDETLCARNVNNEVHFFENNNFNTIANKLHLQKINDFVLSPGPQPYKVAVYVPGSKGAPSFVRLYQYPNFAGPHAALANKSFFKADKVTMLWNKKATAVLVIASTDVDKTGASYYGEQTLHYIATNGESAVVQLPKNGPIYDVVWNSSSTEFCAVYGFMPAKATIFNLKCDPVFDFGTGPRNAAYYSPHGHILVLAGFGNLRGQMEVWDVKNYKLISKPVASDSTYFAWCPDGEHILTATCAPRLRVNNGYKIWHYTGSILHKYDVPSNAELWQVSWQPFLDGIFPAKTITYQAVPSEVPNEEPKVATAYRPPALRNKPITNSKLHEEEPPQNMKPQSGNDKPLSKTALKNQRKHEAKKAAKQEARSDKSPDLAPTPAPQSTPRNTVSQSISGDPEIDKKIKNLKKKLKAIEQLKEQAATGKQLEKNQLEKIQKETALLQELEDLELGI | binds

Second part, the molecule after the results:

Row | binding | Molecule
4 | binds | nuclear cap-binding protein (NCBP1) (from UniProt Q09161 1-790)
5 | binds | eukaryotic initiation factor 4A-1 (EIF4A1) (from UniProt P60842 1-406)

Source: publication PMC4935812
